Results published in PMC6355032.

Biological target: PyCCR4-1::GFP (Plasmodium yoelii 17XNL)
Assay: affinity purification with mass spectrometry; PyCCR4-1::GFP immunoprecipitated via the GFP tag (biotin-conjugated anti-GFP on streptavidin dynabeads, 3 h, 4C) from synchronized schizonts crosslinked in 1% v/v formaldehyde and lysed in RIPA buffer; LC/MS/MS; three replicates scored by SAINT against control IPs (thresholds 0.1 and 0.35)

binding: binds
B1: OAT (protein, UniProt Q7RT90 1-414)
chain: MEFVKDLKTPEDYINNELKYGAHNYDPIPVVLKRAKGVFVYDVNDKRYYDFLSAYSSVNQGHCHPNILNAMINQAKNLTICSRAFFSVPLGICERYLTNLLGYDKVLMMNTGAEANETAYKLCRKWGYEVKKIPENMAKIVVCKNNFSGRTLGCISASTTKKCTSNFGPFAPQFSKVPYDDLEALEEELKDPNVCAFIVEPIQGEAGVIVPSDNYLQGVYDICKKYNVLFVADEVQTGLGRTGKLLCVHHYNVKPDVILLGKALSGGHYPISAVLANDDIMLVIKPGEHGSTYGGNPLAASICVEALNVLINEKLCENAEKLGGPFLENLKRELKDSKIVRDVRGKGLLCAIEFKNELVNVLDICLKLKENGLITRDVHDKTIRLTPPLCITKEQLDECTEIIVKTVKFFDERF

No constants are given. Whether binding was seen depends on the method and setting. Binding seen in cells or lysates may run through a third protein. Here binding means that the protein was enriched with, or labelled near, the bait; the list need not be complete.
